Test results reported in patent publication US11938122B2, “5-[[4-[2-[5-(1-hydroxyethyl)pyridin-2-yl]ethoxy]phenyl]methyl]-1,3- thiazolidine-2,4-dione for treating nonalcoholic fatty liver disease” (Minoryx Therapeutics S.L., priority 2016, dated 2024).
At least one structure is not confirmed: it was looked up by name or label, or the drawing left a doubt.

What was measured:
[1] = test system: TNF alpha secretion, THP-1 cells; test: LPS-induced inflammation model in THP-1 cells, TNF-alpha ELISA; assay type: cell-based, human; settings: 1 h pre-incubation, 50 ng/mL LPS 4 hours
adiponectin = test: Plasma adiponectin levels in Sprague Dawley rats (ELISA); assay type: in vivo, rat; settings: 54 mg/Kg/day for 7 days, plasma 1 h after last administration, vs vehicle
[2] = test system: MCD diet NASH mouse model; test: Methionine Choline Deficient (MCD) diet NASH mouse model; assay type: in vivo; settings: 62.5 mg/kg BID oral, 7 weeks
Text: According to one NASH model in mice (See Verdelho Machado et al., PlosOne May 27:10(5):e0127991 (2015)), male C57BL/6 inbred mice, aged 8 weeks, were obtained from Charles River, France. During the acclimation phase, standard (control chow) diet (RM1 (E) 801492, SDS) and tap water was provided ad libitum. Mice were then fed a Methionine Choline Deficient (MCD) diet (ref #A02082002B from Research Diets, USA) supplemented without or with the test item, provided ad libitum. All procedures were performed in accordance with the Guide for the Care and Use of Laboratory Animals (revised 1996 and 2011, 2010/63/EU) and French laws. 20 animals were housed in ventilated and enriched housing cages (310×125×127 mm^3) throughout the experimental phase. Animals' cages litters were changed at least once a week. They were housed in groups of 10 animals during the whole study, on a normal 12 hours light cycle (at 08:00 pm lights off), 22±2° C. and 50±10% relative humidity.
After the acclimation period, mice (n=20) were weighed and randomized into 2 homogenous treatment groups based on body weight (n=10/group), put on a MCD diet, and treated BID orally with vehicle or MIN-102 for 7 weeks. Body weight was measured 3 times/week until the end of the experimental phase. At 7 weeks of diet/treatment, mice were weighed and treated at ˜08:00 am in the morning, then bled (maximal volume/EDTA) at ˜1:00 pm. Plasma was then immediately isolated and stored at […] prior to assay plasma ALT and AST. The plasma volume left over was stored at […] for eventual additional analysis.
After blood collection, mice were sacrificed by cervical dislocation under isoflurane anesthesia and exsanguinated with sterile saline. Liver was collected and weighted. A ˜20 mg liver sample (weight recorded) was dissected for hepatic total cholesterol and triglycerides levels. A 0.5 cm^3 liver sample was frozen in isopentane for oil red O staining. A 0.5 cm^3 liver sample was Stored in formalin for 24 hours then in 700 ethanol at 4° C. for hematoxylin/eosin, Sirius Red Staining.
A NAFLD scoring system (NAS) adapted from Kleiner et al. (Hepatology. 41(6):1313-1321 (2005)) was used. An individual mouse NAS total score was calculated for each animal by summing up the score for (1) hepatocellular steatosis, (2) liver inflammation, (3) lobular fibrosis, and (4) hepatocyte ballooning. The spare liver was kept stored at −80° C. for eventual additional analysis.
Data are expressed as mean±SEM. Statistical analysis was performed using a Mann-Whitney test or a 2-way ANOVA+Bonferroni post-test to compare both groups. A p<0.05 was considered significant.
The preventive effects of MIN-102 was evaluated in a 7-week Methionine Choline Deficient (MCD) diet NASH mouse model (Verdelho Machado et al.). After the acclimation period, C57BL6/J male mice (n=20) were weighed and randomized into 2 homogenous treatment groups based on body weight (n=10/group), put on a MCD diet, and treated BID orally with vehicle or MIN-102 for 7 weeks.
MIN-102 was dosed 62.5 mg/kg BID orally by gavage.
After the acclimation period, C57BL6/J male mice (n=20) were weighed and randomized into 2 homogenous treatment groups based on body weight (n=10/group), put on a MCD diet, and treated BID orally with a vehicle or MIN-102 (125 mg/Kg/day) for 7 weeks. Body weight was measured 3 times/week until the end of the experimental phase. […]

NASH patients = settings: Kawaguchi-Suzuki et al.; cited from earlier work

SMILES	secretion of TNF alpha ([1]; 10, 5, and 1 μM)	secretion of TNF alpha ([1]; 100 and 50 μM)	plasma adiponectin levels (adiponectin)	hepatic cholesterol levels [2]	liver inflammation [2]	oil red o staining % ([2]; compared with vehicle)	body weight loss ([2]; day 14 to day 50)	steatosis score ([2]; vs vehicle)	treatment response in NASH patients (NASH patients)
CC(O)c1ccc(CCOc2ccc(CC3SC(=O)NC3=O)cc2)nc1 (racemic) [MIN-102, 5-[[4-[2-[5-(1-hydroxyethyl)pyridin-2-yl]ethoxy]phenyl]methyl]-1,3-thiazolidine-2,4-dione]	minor effects	inhibited the secretion of this cytokine	significantly increased the levels of adiponectin	did not show a change in hepatic cholesterol levels	total disappearance of inflammation	extremely low	less severe decline in body weight loss	blunted steatosis score	–
CCc1ccc(CCOc2ccc(CC3SC(=O)NC3=O)cc2)nc1 (stereo not drawn) [pioglitazone]	–	–	–	–	–	–	–	–	concentration-dependent
